A: 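Assay on Mycobacterium tuberculosis, filed only as a heat shock assay from Cornell; the read-out is not stated. The concentration is filed as 10 mM, unlikely as a test dose, so the dose is not known. Direction is inferred from retests: higher values go with stronger inhibition. Size under these conditions: about 69,000 compounds, about 930 of them at 50% or above in at least one test.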
B: 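Primary screen of methionyl-tRNA synthetase; the read-out is not stated. Target: Methionyl-tRNA synthetase (putative), Leishmania donovani (UniProt E9BF75). The test concentration is not given. Values are per cent inhibition. Size under these conditions: about 68,000 compounds, about 24 of them at 50% or above in at least one test.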
C: 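Whole-cell assay for inhibitors of Mycobacterium tuberculosis growth, labelled Cornell in the record; the read-out is not stated. The concentration is filed as 10 mM, unlikely as a test dose, so the dose is not known. The record gives no direction; compounds strong in two other growth screens of this library score well above the rest, so higher reads as stronger inhibition. Size under these conditions: about 53,000 compounds, about 900 of them at 50% or above in at least one test.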

Sequences of proteins named here, by UniProt entry; tags and fusion partners are left off.
UniProt E9BF75, entry or part of it: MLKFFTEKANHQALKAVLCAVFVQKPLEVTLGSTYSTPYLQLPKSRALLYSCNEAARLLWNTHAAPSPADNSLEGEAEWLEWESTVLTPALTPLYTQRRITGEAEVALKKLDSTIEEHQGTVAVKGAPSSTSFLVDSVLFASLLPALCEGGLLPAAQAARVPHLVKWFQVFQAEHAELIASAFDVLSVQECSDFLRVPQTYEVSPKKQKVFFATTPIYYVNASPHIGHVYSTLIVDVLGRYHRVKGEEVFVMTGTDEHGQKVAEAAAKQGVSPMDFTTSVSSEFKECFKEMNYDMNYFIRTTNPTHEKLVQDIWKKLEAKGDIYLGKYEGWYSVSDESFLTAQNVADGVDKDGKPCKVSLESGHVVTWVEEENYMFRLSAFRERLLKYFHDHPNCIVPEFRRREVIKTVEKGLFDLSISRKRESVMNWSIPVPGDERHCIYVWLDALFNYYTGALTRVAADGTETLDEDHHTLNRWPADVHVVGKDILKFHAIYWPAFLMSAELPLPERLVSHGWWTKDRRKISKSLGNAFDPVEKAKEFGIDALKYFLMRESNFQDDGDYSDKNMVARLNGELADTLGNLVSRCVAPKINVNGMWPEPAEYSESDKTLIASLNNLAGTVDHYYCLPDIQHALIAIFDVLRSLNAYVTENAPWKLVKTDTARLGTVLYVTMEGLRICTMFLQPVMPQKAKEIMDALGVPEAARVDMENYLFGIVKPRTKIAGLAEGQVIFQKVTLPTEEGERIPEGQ

Results are percentages, as filed.
How 0% and 100% were set is not recorded. Most values in the screen are low, and negative values occur.
The compounds are a random part of those screened.

compound: Cc1noc(C)c1CN1CCOCC12CCN(c1cnccn1)CC2
B: 3.636%

compound: COc1ccc(CN(Cc2ccco2)Cc2[nH]cnc2C)c(OC)c1.O=C(O)CC(O)(CC(=O)O)C(=O)O
A: -12.09%
C: 39.21%

compound: [H][C@]12CC[C@]([H])(CN(c3ncccc3C(N)=O)C1)N(CC=C(C)C)C2=O
A: -15.11%
C: -2.42%

compound: [H][C@]12CN(C(=O)c3cnc(C)nc3)CC[C@@]1(O)CCN(C1CCCCC1)C2
A: -0.5834%
C: 15.94%

compound: CCCC(=O)N1CCC(c2nc(O)c3c(n2)CCN(C2CCCC2)C3)C1 (centres undefined)
A: -9.089%
B: 0.5208%
C: -16.76%

compound: CCC(O)CNc1ccc(-c2nc(CC(C)C)no2)cn1 (centres undefined)
A: -1.58%
B: 12.59%
C: 50.96%

compound: Cc1nn2c(-c3cnn(C)c3)nnc2s1
A: -4.625%
B: 14.92%
C: 28.02%

compound: c1cnn(CCNCCCOc2ccc3c(c2)OCO3)c1
A: 0.6427%
B: 10.87%
C: 38.86%

compound: Cc1cnn(CC(C)NCc2c(C)nn(Cc3ccccc3)c2C)c1 (centres undefined)
A: -3.789%
B: 13.66%
C: -0.8289%

compound: Cc1nn(C)c2cn(C(C)C(=O)NCc3cccnc3)nc12 (centres undefined)
A: -2.199%
B: 16.18%

compound: CC(O)CN(C(=O)NC1CCN(CC2CCCCC2)CC1)C(C)C (centres undefined)
A: 13.64%
B: 19.91%
C: 42.51%

compound: O=C(NCCOc1ccc2c(c1)OCO2)N1CCC1
A: 19.19%
B: 5.226%
C: 18.49%

compound: Cc1cc(C(=O)N2CCCC3(CNC(=O)O3)C2)c2c(C)nn(C)c2n1 (centres undefined)
A: 5.829%
B: 4.178%
C: -3.12%

compound: CC1c2ncc(COCC3CCOCC3)n2CCN1C(=O)c1ccoc1 (centres undefined)
A: 1.511%
B: 5.226%
C: -30.72%

compound: Cc1ccc(S(=O)(=O)N2CCC(O)(CN(C)C)C2)cc1 (centres undefined)
A: -13.23%
B: 7.91%
C: -12.38%

compound: CC(NC(=O)NCc1ccccc1)(C(=O)O)c1ccco1 (centres undefined)
A: -8.455%
B: 15.43%
C: -57.05%

compound: CCc1nc(C)c(CN2CCOC(Cc3ccccc3Cl)C2)[nH]1 (centres undefined)
A: -7.835%
B: 17.93%
C: 15.95%

compound: [H][C@@]12CCCO[C@]1([H])[C@H](OCc1cccnc1)CN2C(=O)c1ccnnc1
A: -20%
C: -22.63%

compound: Cc1nc(C)c(CN2CCOC(CNc3cccnn3)C2)s1 (centres undefined)
A: -6.409%
B: 14.25%
C: -14.43%

compound: CCN(Cc1ccncc1)C(=O)C1COc2c(cccc2OC)C1 (centres undefined)
A: -30.36%
B: 20.96%
C: 27.15%

compound: CCS(=O)(=O)N1CCC2(CC1)CN(CC1CCOC1)c1ccccc12.O=C(O)C(F)(F)F (centres undefined)
A: -15.35%
C: -6.416%

compound: Cn1ccc(C(=O)NC2CCC23CCN(Cc2ccc(F)cc2)CC3)c1 (centres undefined)
B: 19.63%

For reference, 3 entries once more:

For CC(NC(=O)NCc1ccccc1)(C(=O)O)c1ccco1 (centres undefined) the result was A: -8.455%; B: 15.43%; C: -57.05%.
For Cc1nc(C)c(CN2CCOC(CNc3cccnn3)C2)s1 (centres undefined) the result was A: -6.409%; B: 14.25%; C: -14.43%.
For [H][C@]12CC[C@]([H])(CN(c3ncccc3C(N)=O)C1)N(CC=C(C)C)C2=O the result was A: -15.11%; C: -2.42%.

Measurements from “University of Dundee, Small-Polar-MMV Screening Library” (2021), ChEMBL document CHEMBL3988442.